No constants are given. Whether binding was seen depends on the method and setting. Binding seen in cells or lysates may run through a third protein. Some entries that bind do so weakly or less than the wild type. Sequences can lack the tags named with a protein.
Molecular target: T1, Ptch1-CFP (mouse) (UniProt Q61115)
T1 sequence: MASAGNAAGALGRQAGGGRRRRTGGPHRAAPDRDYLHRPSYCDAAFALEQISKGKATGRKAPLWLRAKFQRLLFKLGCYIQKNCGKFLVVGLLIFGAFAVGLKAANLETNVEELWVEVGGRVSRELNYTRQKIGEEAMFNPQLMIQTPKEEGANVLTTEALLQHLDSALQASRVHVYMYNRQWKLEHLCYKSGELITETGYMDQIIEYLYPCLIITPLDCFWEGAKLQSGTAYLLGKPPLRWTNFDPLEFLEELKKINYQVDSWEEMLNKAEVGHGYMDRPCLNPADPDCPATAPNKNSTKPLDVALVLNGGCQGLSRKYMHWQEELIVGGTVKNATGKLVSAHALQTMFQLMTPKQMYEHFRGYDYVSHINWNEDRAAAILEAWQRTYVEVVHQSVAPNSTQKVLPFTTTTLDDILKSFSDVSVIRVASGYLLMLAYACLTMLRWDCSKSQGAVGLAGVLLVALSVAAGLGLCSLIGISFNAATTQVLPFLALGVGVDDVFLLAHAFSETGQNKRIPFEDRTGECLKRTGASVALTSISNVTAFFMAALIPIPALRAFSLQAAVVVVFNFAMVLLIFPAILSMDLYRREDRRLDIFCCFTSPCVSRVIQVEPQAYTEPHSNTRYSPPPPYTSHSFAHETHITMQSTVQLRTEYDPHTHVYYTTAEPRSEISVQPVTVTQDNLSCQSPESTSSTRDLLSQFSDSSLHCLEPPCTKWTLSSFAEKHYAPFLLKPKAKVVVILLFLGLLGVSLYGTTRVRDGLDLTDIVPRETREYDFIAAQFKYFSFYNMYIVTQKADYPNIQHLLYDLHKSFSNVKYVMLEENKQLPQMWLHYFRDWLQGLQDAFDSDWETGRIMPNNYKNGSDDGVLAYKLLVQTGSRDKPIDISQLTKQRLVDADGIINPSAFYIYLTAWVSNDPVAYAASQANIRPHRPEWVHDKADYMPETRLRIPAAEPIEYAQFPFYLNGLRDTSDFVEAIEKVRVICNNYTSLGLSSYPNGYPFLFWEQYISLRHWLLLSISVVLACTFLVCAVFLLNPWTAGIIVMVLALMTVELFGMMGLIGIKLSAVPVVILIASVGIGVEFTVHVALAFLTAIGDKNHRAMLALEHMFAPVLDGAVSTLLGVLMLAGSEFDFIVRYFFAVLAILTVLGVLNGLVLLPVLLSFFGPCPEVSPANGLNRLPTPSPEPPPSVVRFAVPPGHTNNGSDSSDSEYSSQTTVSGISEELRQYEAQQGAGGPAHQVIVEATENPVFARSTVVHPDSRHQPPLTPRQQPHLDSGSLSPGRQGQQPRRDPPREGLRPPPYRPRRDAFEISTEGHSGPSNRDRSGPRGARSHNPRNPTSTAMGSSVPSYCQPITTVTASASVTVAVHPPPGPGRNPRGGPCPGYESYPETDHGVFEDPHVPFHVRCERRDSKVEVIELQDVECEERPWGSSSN
Experiment: FRET or BRET; CFP/YFP sensitized-emission FRET (N-FRET) by confocal microscopy in transfected MEFs; also with ShhN or control conditioned medium for 2 hr

Amino acid sequences for entries named in this document (tags omitted).
UniProt Q9HCE7: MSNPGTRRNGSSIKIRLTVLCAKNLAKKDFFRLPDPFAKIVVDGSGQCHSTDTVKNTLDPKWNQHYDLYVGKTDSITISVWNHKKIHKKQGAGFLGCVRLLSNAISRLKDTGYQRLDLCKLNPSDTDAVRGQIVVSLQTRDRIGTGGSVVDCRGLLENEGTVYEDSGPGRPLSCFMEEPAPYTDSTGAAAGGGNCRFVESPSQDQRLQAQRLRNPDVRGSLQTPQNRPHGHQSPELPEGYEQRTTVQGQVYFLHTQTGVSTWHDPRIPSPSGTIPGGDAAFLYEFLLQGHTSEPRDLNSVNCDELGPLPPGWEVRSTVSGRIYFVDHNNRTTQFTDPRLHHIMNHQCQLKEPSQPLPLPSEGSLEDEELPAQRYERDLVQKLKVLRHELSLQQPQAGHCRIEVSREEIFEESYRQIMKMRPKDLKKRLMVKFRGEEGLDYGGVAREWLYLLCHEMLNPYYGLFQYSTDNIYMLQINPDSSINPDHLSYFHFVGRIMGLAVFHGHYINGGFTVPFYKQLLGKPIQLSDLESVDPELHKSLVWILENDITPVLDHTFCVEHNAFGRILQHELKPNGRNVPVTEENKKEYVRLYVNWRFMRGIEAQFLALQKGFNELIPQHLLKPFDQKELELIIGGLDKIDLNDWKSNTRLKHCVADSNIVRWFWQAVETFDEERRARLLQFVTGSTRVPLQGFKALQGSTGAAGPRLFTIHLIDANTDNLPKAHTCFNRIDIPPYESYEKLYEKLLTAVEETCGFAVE
UniProt Q9HAU4: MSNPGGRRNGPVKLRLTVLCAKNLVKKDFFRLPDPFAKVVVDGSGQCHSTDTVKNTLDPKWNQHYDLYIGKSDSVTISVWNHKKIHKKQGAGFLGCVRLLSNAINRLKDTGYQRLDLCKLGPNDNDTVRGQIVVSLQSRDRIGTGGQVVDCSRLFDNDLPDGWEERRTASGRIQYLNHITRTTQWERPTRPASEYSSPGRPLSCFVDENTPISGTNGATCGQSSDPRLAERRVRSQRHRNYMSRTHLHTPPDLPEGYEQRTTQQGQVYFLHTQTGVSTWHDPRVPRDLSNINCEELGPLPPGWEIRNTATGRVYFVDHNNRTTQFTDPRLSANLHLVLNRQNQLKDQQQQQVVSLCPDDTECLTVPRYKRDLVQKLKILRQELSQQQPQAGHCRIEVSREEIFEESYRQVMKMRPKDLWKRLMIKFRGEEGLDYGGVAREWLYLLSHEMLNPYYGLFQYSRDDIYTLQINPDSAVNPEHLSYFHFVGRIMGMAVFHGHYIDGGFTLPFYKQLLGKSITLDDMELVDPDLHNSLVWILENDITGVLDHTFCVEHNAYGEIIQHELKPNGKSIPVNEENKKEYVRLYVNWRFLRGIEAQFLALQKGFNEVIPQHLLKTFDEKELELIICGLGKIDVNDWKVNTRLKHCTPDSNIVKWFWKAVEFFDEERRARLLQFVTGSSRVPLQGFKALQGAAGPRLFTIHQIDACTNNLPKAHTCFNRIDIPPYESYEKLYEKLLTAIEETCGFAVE

Substance: Smurf1-YFP (from UniProt Q9HCE7 1-757) (enzyme)
- binding: binds

Substance: Smurf2-YFP (from UniProt Q9HAU4 1-748) (enzyme)
- binding: binds
